{"source": "patent US8124605B2", "about": "“Compositions and methods for modulating a kinase cascade” (Kinex Pharmaceuticals, LLC, priority 2007, dated 2012)", "biological_target": "T1, JAK3 (Homo sapiens, UniProt P52333)", "T1 construct": "U-937 cells, histiocytic lymphoma cell line; endogenous in cells; host or cells: U-937 (ATCC CRL-1593.2)", "T1 sequence (P52333 1-1124)": "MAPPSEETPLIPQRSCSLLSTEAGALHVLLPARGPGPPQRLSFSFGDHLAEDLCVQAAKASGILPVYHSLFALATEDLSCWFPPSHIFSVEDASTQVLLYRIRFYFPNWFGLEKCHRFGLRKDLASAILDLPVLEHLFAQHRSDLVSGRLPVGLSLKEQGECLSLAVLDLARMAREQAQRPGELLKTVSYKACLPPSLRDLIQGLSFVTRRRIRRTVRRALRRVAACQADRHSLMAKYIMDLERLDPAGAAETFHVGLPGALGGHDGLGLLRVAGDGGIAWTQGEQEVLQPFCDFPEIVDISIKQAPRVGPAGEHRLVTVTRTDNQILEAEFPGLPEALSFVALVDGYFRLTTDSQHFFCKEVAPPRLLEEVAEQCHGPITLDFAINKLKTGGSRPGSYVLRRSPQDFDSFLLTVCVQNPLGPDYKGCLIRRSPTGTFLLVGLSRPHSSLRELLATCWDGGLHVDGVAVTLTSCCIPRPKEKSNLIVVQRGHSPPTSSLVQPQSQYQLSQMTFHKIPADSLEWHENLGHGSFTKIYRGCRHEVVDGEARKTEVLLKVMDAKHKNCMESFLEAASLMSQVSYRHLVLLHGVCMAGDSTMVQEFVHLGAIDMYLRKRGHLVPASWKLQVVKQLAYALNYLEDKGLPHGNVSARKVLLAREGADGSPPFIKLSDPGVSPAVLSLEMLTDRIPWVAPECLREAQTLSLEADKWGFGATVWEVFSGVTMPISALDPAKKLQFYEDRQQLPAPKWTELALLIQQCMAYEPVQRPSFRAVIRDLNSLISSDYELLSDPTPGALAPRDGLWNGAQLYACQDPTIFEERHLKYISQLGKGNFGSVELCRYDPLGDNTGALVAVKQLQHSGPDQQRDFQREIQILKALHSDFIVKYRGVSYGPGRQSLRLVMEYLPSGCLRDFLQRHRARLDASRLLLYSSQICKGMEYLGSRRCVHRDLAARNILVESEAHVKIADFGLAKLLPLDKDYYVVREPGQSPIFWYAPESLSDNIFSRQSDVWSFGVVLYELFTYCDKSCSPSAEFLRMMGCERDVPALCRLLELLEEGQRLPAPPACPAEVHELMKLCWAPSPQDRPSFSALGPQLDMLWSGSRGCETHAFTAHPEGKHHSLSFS", "assay": "JAK phosphorylation/activation by flow cytometry, pSTAT5 staining in IL-4 stimulated U-937 cells", "type": "cell-based", "set-up": "key to the marks not given beside the values", "details": "symbols not defined", "method": "The protocol used to analyze the effect of compounds of the invention on JAK phosphorylation/activation is adapted from: Krutzik and Nolan, Cytometry Part A 55A:61-70 (2003).\nBriefly, U-937 cells, histiocytic lymphoma cell line; ATCC No. CRL-1593.2, were treated with compounds of the invention or commercial JAK inhibitors. Cells were then stimulated with IL-4, to engage the JAK/STAT signaling pathway. Cells were fixed with formaldehyde to “freeze” the phosphorylation states of intracellular proteins. Cells were next permeabilized, and stained with mAbs directed against the phosphorylated STAT (pSTAT) proteins. The positive shift in fluorescence due to pSTAT staining serves as a surrogate to JAK phosphorylation/activation: no flow cytometric mAbs specific to JAKs exist, so the proximal downstream signaling event, STAT phosphorylation, is measured. A decrease in fluorescence, due to drug incubation prior to IL-4 stimulation, is an indirect indication of JAK inhibition. The following antibodies were used: apSTAT5-PE: monoclonal antibody to the intracellular STAT5a protein phosphorylated at Tyrosine 694; conjugated to the fluorochrome phycoerythrin (PE); BD No. 612567 and apSTAT6-Alex647: monoclonal antibody to the intracellular STAT6 protein phosphorylated at Tyrosine 641; conjugated to the fluorochrome Alexa Fluor 647; BD No. 612601. The detailed protocol is described below: […]", "note": "For at least one compound, name, drawing or mass did not settle the structure.", "data": [{"smiles": "COc1cc2ncnc(Nc3ccc(O)c(Br)c3)c2cc1OC", "note": "[WHI-P154]", "values": [{"measurement": "Inhibition JAK3", "value": "+++"}]}]}
